Measured values taken from patent US20090143279A1 (priority 2007, published 2009).
Where two headings read alike, the source gives them in different places. At least one read-out could not be matched to a standard name with certainty.

Columns and labels:
nuOXPHOS transcripts = type: cell-based, mouse
reactive oxygen species = type: cell-based, mouse
mtOXPHOS transcripts = type: cell-based, mouse
[1] = test system: cellular dehydrogenase activity
OXPHOS gene expression = type: cell-based, mouse
[2] = test system: mitochondrial membrane potential; type: cell-based, mouse
[3] = composite Z-score vs mock-treated (DMSO) wells, concentration of each compound in μM
[4] = normalized score (composite Z-score vs DMSO mock-treated wells), compound concentration (μM)

**Q.** For CC(=O)SCC(Cc1ccccc1)C(=O)NCC(=O)OCc1ccccc1 (stereo not drawn) [racecadotril], which nucOX (nuOXPHOS transcripts; [3]) is on record?
**A.** −0.229

**Q.** What about the Viability (C2C12 myotubes; [3]) of the same compound?
**A.** −0.468

**Q.** And the ROS (reactive oxygen species; [3])?
**A.** 0.705

**Q.** What about the mitoOX (mtOXPHOS transcripts; [3]) of the same compound?
**A.** −0.235

**Q.** What about the MTT [1, 3] of the same compound?
**A.** −1.550

**Q.** And the GE-HTS (OXPHOS gene expression; [3])?
**A.** −0.249

**Q.** And the ΔΨm [2, 3]?
**A.** −0.382

**Q.** How did the nucOX (nuOXPHOS transcripts; [3]) turn out when CC(C)=CCC[C@@H](C)[C@H]1CC[C@@]2(C)C3=C(CC[C@]12C)[C@@]1(C)CC[C@H](O)C(C)(C)[C@@H]1CC3 [lanosterol] was run?
**A.** −0.293

**Q.** And the Viability (C2C12 myotubes; [3])?
**A.** 0.020

**Q.** What about the ROS (reactive oxygen species; [3]) of the same compound?
**A.** 0.879

**Q.** And the mitoOX (mtOXPHOS transcripts; [3])?
**A.** 0.207

**Q.** What about the MTT [1, 3] of the same compound?
**A.** −1.103

**Q.** What about the GE-HTS (OXPHOS gene expression; [3]) of the same compound?
**A.** −0.156

**Q.** What about the ΔΨm [2, 3] of the same compound?
**A.** −0.503

**Q.** Oc1ccc(Cl)cc1 [parachlorophenol] was tested. Which nucOX (nuOXPHOS transcripts) did it give?
**A.** −0.090

**Q.** What about the Viability (C2C12 myotubes) of the same compound?
**A.** 0.247

**Q.** And the ROS (reactive oxygen species)?
**A.** 1.436

**Q.** What about the mitoOX (mtOXPHOS transcripts) of the same compound?
**A.** −0.190

**Q.** And the MTT [1]?
**A.** −0.668

**Q.** What about the GE-HTS (OXPHOS gene expression) of the same compound?
**A.** −0.158

**Q.** And the ΔΨm [2]?
**A.** 0.782

**Q.** Which nucOX (nuOXPHOS transcripts) does the source give for CNc1ccccc1C(=O)O [N-methylanthranilic acid] here?
**A.** −0.179

**Q.** And the Viability (C2C12 myotubes)?
**A.** −0.146

**Q.** What about the ROS (reactive oxygen species) of the same compound?
**A.** 0.967

**Q.** And the mitoOX (mtOXPHOS transcripts)?
**A.** −0.683

**Q.** And the MTT [1]?
**A.** −0.120

**Q.** And the GE-HTS (OXPHOS gene expression)?
**A.** −0.385

**Q.** And the ΔΨm [2]?
**A.** −1.181

**Q.** Which nucOX (nuOXPHOS transcripts; [3]) does the source give for CC(O)Cn1cnc2c1c(=O)n(C)c(=O)n2C (stereo not drawn) [proxyphylline] here?
**A.** 0.174

**Q.** What about the Viability (C2C12 myotubes; [3]) of the same compound?
**A.** 0.659

**Q.** What about the ROS (reactive oxygen species; [3]) of the same compound?
**A.** −0.186

**Q.** And the mitoOX (mtOXPHOS transcripts; [3])?
**A.** −0.056

**Q.** And the MTT [1, 3]?
**A.** 0.395

**Q.** What about the GE-HTS (OXPHOS gene expression; [3]) of the same compound?
**A.** 0.111

**Q.** What about the ΔΨm [2, 3] of the same compound?
**A.** 0.821

**Q.** C[C@@H]1O[C@@H](OC[C@H]2O[C@@H](Oc3c(-c4ccc(O)c(O)c4)oc4cc(O)cc(O)c4c3=O)[C@H](O)[C@@H](O)[C@@H]2O)[C@H](O)[C@H](O)[C@H]1O [rutoside] was tested. Which nucOX (nuOXPHOS transcripts; [3]) did it give?
**A.** −0.575

**Q.** And the Viability (C2C12 myotubes; [3])?
**A.** −0.964

**Q.** And the ROS (reactive oxygen species; [3])?
**A.** 0.172

**Q.** What about the mitoOX (mtOXPHOS transcripts; [3]) of the same compound?
**A.** 0.188

**Q.** What about the MTT [1, 3] of the same compound?
**A.** −1.155

**Q.** And the GE-HTS (OXPHOS gene expression; [3])?
**A.** −0.338

**Q.** What about the ΔΨm [2, 3] of the same compound?
**A.** −1.012

**Q.** Which nucOX (nuOXPHOS transcripts; [3]) does the source give for CC1(C)O[C@@H]2[C@@H](CO[C@@]3(COS(N)(=O)=O)OC(C)(C)O[C@@H]23)O1 [topiramate] here?
**A.** 0.302

**Q.** And the Viability (C2C12 myotubes; [3])?
**A.** 0.452

**Q.** What about the ROS (reactive oxygen species; [3]) of the same compound?
**A.** −0.360

**Q.** And the mitoOX (mtOXPHOS transcripts; [3])?
**A.** 0.178

**Q.** What about the MTT [1, 3] of the same compound?
**A.** −0.732

**Q.** And the GE-HTS (OXPHOS gene expression; [3])?
**A.** 0.255

**Q.** What about the ΔΨm [2, 3] of the same compound?
**A.** −0.212

**Q.** How did the nucOX (nuOXPHOS transcripts; [4]) turn out when CCN[C@@H]1C[C@H](N)[C@@H](O[C@H]2OC(CN)=CC[C@H]2N)[C@H](O)[C@H]1O[C@H]1OC[C@](C)(O)[C@H](NC)[C@H]1O [netilmicin] was run?
**A.** 0.861

**Q.** What about the Viability (C2C12 myotubes; [4]) of the same compound?
**A.** 0.633

**Q.** And the ROS (reactive oxygen species; [4])?
**A.** −0.762

**Q.** And the mitoOX (mtOXPHOS transcripts; [4])?
**A.** 1.167

**Q.** What about the MTT [1, 4] of the same compound?
**A.** 0.883

**Q.** What about the GE-HTS (OXPHOS gene expression; [4]) of the same compound?
**A.** 1.032

**Q.** What about the ΔΨm [2, 4] of the same compound?
**A.** −0.582

**Q.** What does the source list for C[N+](C)(C)CCOP(=O)(O)OP(=O)([O-])OC[C@H]1O[C@@H](n2ccc(N)nc2=O)[C@H](O)[C@@H]1O [citicoline]?
**A.** nucOX (nuOXPHOS transcripts; [3]): −0.607; Viability (C2C12 myotubes; [3]): −0.283; ROS (reactive oxygen species; [3]): 1.034; mitoOX (mtOXPHOS transcripts; [3]): −0.495; MTT [1, 3]: −0.605; GE-HTS (OXPHOS gene expression; [3]): −0.620; ΔΨm [2, 3]: −0.103

**Q.** For Cc1cc(O)c(C=O)c2c1C(=O)Oc1c(COC(=O)/C=C/C(=O)O)c(O)c(C(=O)O)c(C)c1O2 [fumarprotocetraric acid], which nucOX (nuOXPHOS transcripts; [3]) is on record?
**A.** −0.553

**Q.** And the Viability (C2C12 myotubes; [3])?
**A.** −0.955

**Q.** And the ROS (reactive oxygen species; [3])?
**A.** 0.476

**Q.** What about the mitoOX (mtOXPHOS transcripts; [3]) of the same compound?
**A.** −0.327

**Q.** What about the MTT [1, 3] of the same compound?
**A.** −0.538

**Q.** And the GE-HTS (OXPHOS gene expression; [3])?
**A.** −0.527

**Q.** What about the ΔΨm [2, 3] of the same compound?
**A.** −0.590

**Q.** O=c1cc(-c2ccccc2)oc2cc(O)cc(O)c12 [chrysin] was tested. Which nucOX (nuOXPHOS transcripts) did it give?
**A.** 0.280

**Q.** And the Viability (C2C12 myotubes)?
**A.** 1.243

**Q.** What about the ROS (reactive oxygen species) of the same compound?
**A.** −0.602

**Q.** And the mitoOX (mtOXPHOS transcripts)?
**A.** 0.003

**Q.** And the MTT [1]?
**A.** 0.370

**Q.** And the GE-HTS (OXPHOS gene expression)?
**A.** 0.205

**Q.** What about the ΔΨm [2] of the same compound?
**A.** 0.765

**Q.** For Cc1cccc(C)c1NC(=O)C1CCCCN1C (stereo not drawn) [mepivacaine], which nucOX (nuOXPHOS transcripts; [3]) is on record?
**A.** −0.625

**Q.** What about the Viability (C2C12 myotubes; [3]) of the same compound?
**A.** −0.497

**Q.** And the ROS (reactive oxygen species; [3])?
**A.** 0.411

**Q.** And the mitoOX (mtOXPHOS transcripts; [3])?
**A.** −0.907

**Q.** And the MTT [1, 3]?
**A.** −0.686

**Q.** What about the GE-HTS (OXPHOS gene expression; [3]) of the same compound?
**A.** −0.780

**Q.** What about the ΔΨm [2, 3] of the same compound?
**A.** −0.945
